PubChem BioAssay AID652259 – Drosophila RNAi Screening Center | 2013
In all, the deposit lists about 22,000 reagents; shown is an unselected part of those that have a named target and a result. Over the whole deposit, 233 (1.1%) were called active. 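Light values are raw, unnormalised plate reads; the ratio scores behind the reporter calls were not deposited.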 Names joined by + are all predicted targets of the reagent. The record does not give: the amount of reagent, the time to read-out, the dose of the treatment.

- Assay: 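Knock-downs that push a Wingless-driven reporter up or down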 (primary screen)
- Cells: Drosophila clone 8 imaginal disc epithelial cells
- Knock-down reagent: long dsRNA against Drosophila genes
- Treatment: pathway stimulated by co-transfected Wingless expression plasmid
- Measurement: 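Firefly luciferase from a tcf-site Wingless reporter, measured alongside co-transfected Renilla luciferase that tracks transfection; pathway stimulated by a Wingless plasmid; the firefly-to-Renilla ratio is not deposited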
- Reading the numbers: firefly reporter light: higher = more Wg reporter light, before normalisation; Renilla control light: higher = more transfected or surviving cells
- Call rule: 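a knock-down is a candidate when at least two out of four statistical tests show it departing from its plate mean; one test alone signals a weak candidate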
- Meaning of the calls: active = candidate regulator (raises or lowers reporter); inactive = not a candidate

| predicted target | DRSC id | reporter change call, replicate 1 | firefly reporter light, replicate 1 | firefly reporter light, replicate 2 | Renilla control light, replicate 1 | Renilla control light, replicate 2 | outcome |
| --- | --- | --- | --- | --- | --- | --- | --- |
| Cpr67Fa1 | DRSC10932 | – | 8710 | – | 3861 | – | inactive |
| CG11929 | DRSC00339 | – | 2491 | 3293 | 1120 | 853 | inactive |
| CG8661 | DRSC20115 | – | 24404 | – | 11724 | – | inactive |
| Shark | DRSC07680 | – | 12154 | – | 3849 | – | inactive |
| Prosalpha6 | DRSC03401 | – | 1068 | 3008 | 325 | 1062 | inactive |
| SMC2 | DRSC07544 | – | 12945 | – | 3811 | – | inactive |
| pelo | DRSC03588 | – | 5476 | – | 1840 | – | inactive |
| CG11912 | DRSC00332 | – | 6915 | – | 3128 | – | inactive |
| Fum4 | DRSC22577 | – | 7.58e5 | 8.12e5 | 3.50e5 | 3.25e5 | inactive |
| CG4757 | DRSC14130 | – | 17363 | – | 4657 | – | inactive |
| CG2150 | DRSC15420 | – | 27106 | – | 21676 | – | inactive |
| CG6654 | DRSC16084 | – | 5908 | – | 2304 | – | inactive |
| CG10681 | DRSC09777 | – | 12546 | – | 3617 | – | inactive |
| CG10681 | DRSC21484 | – | 8.10e5 | 8.24e5 | 4.32e5 | 3.38e5 | inactive |
| CG9426 | DRSC03219 | – | 1954 | 6712 | 1016 | 2090 | inactive |
| Obp22a | DRSC00088 | – | 26147 | – | 10957 | – | inactive |
| CG15731 | DRSC19698 | – | 20260 | – | 11920 | – | inactive |
| CG15731 | DRSC21820 | – | 6.96e5 | 7.95e5 | 3.60e5 | 2.46e5 | inactive |
| CG32371 | DRSC22209 | – | 6.98e5 | 7.98e5 | 3.95e5 | 3.83e5 | inactive |
| CG15771 | DRSC18077 | – | 25751 | – | 7144 | – | inactive |
| ImpL2 | DRSC08666 | – | 3257 | – | 1305 | – | inactive |
| CheA75a | DRSC10807 | – | 3612 | – | 1643 | – | inactive |
| CG32445 | DRSC11678 | – | 14678 | – | 4125 | – | inactive |
| CG17572 | DRSC02629 | – | 2182 | 6821 | 713 | 1972 | inactive |
| Cdk9 | DRSC04601 | – | 2505 | 5333 | 545 | 2050 | inactive |
| meng | DRSC02134 | – | 1909 | 5104 | 1248 | 2668 | inactive |
| CG31797 | DRSC02476 | – | 1960 | 7084 | 650 | 2492 | inactive |
| CG31797 | DRSC02477 | – | 3889 | 9818 | 849 | 3171 | inactive |
| dac | DRSC03518 | – | 3523 | 4854 | 1265 | 2659 | inactive |
| Lapsyn | DRSC04249 | – | 11904 | – | 3293 | – | inactive |
| FipoQ | DRSC15413 | – | 2810 | 6392 | 867 | 1824 | inactive |
| mod(mdg4) + pre-mod(mdg4)-U | DRSC13476 | – | 3904 | – | 1696 | – | inactive |
| CG3732 | DRSC04410 | – | 13730 | – | 2220 | – | inactive |
| CG34038 | DRSC04039 | – | 18801 | – | 8951 | – | inactive |
| CG15283 | DRSC01980 | – | 2903 | 8429 | 1218 | 3557 | inactive |
| CG8046 | DRSC07059 | – | 13787 | – | 2321 | – | inactive |
| Sec20 | DRSC12295 | Wg reporter activity lowered | 7261 | – | 3927 | – | active |
| CG9777 | DRSC20208 | – | 24666 | – | 10832 | – | inactive |
| SA2 | DRSC08385 | – | 4903 | – | 3052 | – | inactive |
| CG8852 | DRSC00719 | – | 1616 | 5708 | 829 | 1445 | inactive |
| CG1143 | DRSC08188 | – | 7545 | – | 2669 | – | inactive |
| Paip1 | DRSC07302 | – | 11581 | – | 2699 | – | inactive |
| CycJ | DRSC08653 | – | 3177 | – | 1322 | – | inactive |
| CG30114 | DRSC05707 | – | 20474 | – | 9597 | – | inactive |
| CG3355 | DRSC00598 | – | 2146 | 3975 | 666 | 1026 | inactive |
| nebu | DRSC09807 | – | 2790 | – | 816 | – | inactive |
| nebu | DRSC09808 | – | 5042 | – | 3004 | – | inactive |
| senju | DRSC02366 | – | 2867 | 8118 | 1012 | 3271 | inactive |
| Ance | DRSC01865 | – | 7446 | – | 2045 | – | inactive |
| CG16974 | DRSC02551 | – | 13283 | – | 4376 | – | inactive |
| CG15548 | DRSC15086 | – | 10485 | – | 3417 | – | inactive |
| Arl2 | DRSC14117 | – | 14245 | – | 3548 | – | inactive |
| sut1 | DRSC07700 | – | 6912 | – | 2235 | – | inactive |
| Hsp70Bc | DRSC16053 | – | 11793 | – | 3173 | – | inactive |
| NT5E-2 | DRSC06893 | – | 16816 | – | 3939 | – | inactive |
| CG31957 | DRSC00207 | – | 18200 | – | 9393 | – | inactive |
| Or33c | DRSC03388 | – | 1957 | 5143 | 944 | 2867 | inactive |
| Ir56d | DRSC06590 | – | 6528 | – | 2250 | – | inactive |
| CG14395 | DRSC14852 | – | 13648 | – | 3131 | – | inactive |
| strat | DRSC03069 | – | 3484 | 10886 | 1239 | 3561 | inactive |
| CG15740 | DRSC19706 | – | 24487 | – | 7529 | – | inactive |
| NaCP60E | DRSC04307 | – | 13829 | – | 5207 | – | inactive |
| NaCP60E | DRSC21351 | – | 6.76e5 | 7.45e5 | 4.15e5 | 3.46e5 | inactive |
| CG16904 | DRSC15161 | – | 5754 | – | 2220 | – | inactive |
| CG5770 | DRSC06954 | – | 17952 | – | 6256 | – | inactive |
| mRpL23 | DRSC08307 | – | 5024 | – | 2666 | – | inactive |
| Vsx2 | DRSC17397 | – | 2465 | – | 736 | – | inactive |
| Vsx2 | DRSC18087 | – | 13328 | – | 3728 | – | inactive |
| Vsx2 | DRSC18088 | – | 16752 | – | 7744 | – | inactive |
| Vsx2 | DRSC18089 | – | 28304 | – | 12916 | – | inactive |
| RNaseZ | DRSC06845 | – | 3226 | 5264 | 808 | 2186 | inactive |
| LS2 | DRSC04340 | – | 2936 | 5592 | 348 | 2251 | inactive |
| CG14756 | DRSC06491 | – | 934 | 4908 | 384 | 2178 | inactive |

A stretch of the results above:
| predicted target | DRSC id | reporter change call, replicate 1 | firefly reporter light, replicate 1 | firefly reporter light, replicate 2 | Renilla control light, replicate 1 | Renilla control light, replicate 2 | outcome |
| --- | --- | --- | --- | --- | --- | --- | --- |
| CG14395 | DRSC14852 | – | 13648 | – | 3131 | – | inactive |
| strat | DRSC03069 | – | 3484 | 10886 | 1239 | 3561 | inactive |
| CG15740 | DRSC19706 | – | 24487 | – | 7529 | – | inactive |
| NaCP60E | DRSC04307 | – | 13829 | – | 5207 | – | inactive |
| NaCP60E | DRSC21351 | – | 6.76e5 | 7.45e5 | 4.15e5 | 3.46e5 | inactive |
| CG16904 | DRSC15161 | – | 5754 | – | 2220 | – | inactive |
| CG5770 | DRSC06954 | – | 17952 | – | 6256 | – | inactive |
